Measured values as given in the supplement of paper PMC3334620.
In all, about 33,000 sequences were measured (“E-score (-0.5 to 0.5)”: median about -0.0059, highest 2% from about 0.26 on). Some of the results follow.

Target: T1, Cin5 (UniProt P40917)
T1 sequence: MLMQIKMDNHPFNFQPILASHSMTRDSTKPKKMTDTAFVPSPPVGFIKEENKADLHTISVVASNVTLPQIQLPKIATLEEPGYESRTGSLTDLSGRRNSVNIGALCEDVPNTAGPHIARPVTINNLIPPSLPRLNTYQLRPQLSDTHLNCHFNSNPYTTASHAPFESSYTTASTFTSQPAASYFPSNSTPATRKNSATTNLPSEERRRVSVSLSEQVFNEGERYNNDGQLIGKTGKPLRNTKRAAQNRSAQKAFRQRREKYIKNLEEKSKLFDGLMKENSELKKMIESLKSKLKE
Assay: PBM E-score (8-mer binding enrichment) (E-score (-0.5 to 0.5)); higher = stronger / more preferred TF binding
Details: protein concentration: 100 nM; construct: GST-full length
Procedure: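 Universal 'all 10-mer' protein binding microarrays (Agilent AMADID 015681) probed with GST-tagged S. cerevisiae TFs (full-length or DBD) made by in vitro transcription/translation (PURExpress), about 100-200 nM. Bound TF was detected with fluorescent anti-GST. Each ungapped 8-mer (which stands for itself and its reverse complement) is scored by the PBM enrichment score (E-score), a modified Wilcoxon-Mann-Whitney statistic from -0.5 to +0.5, computed with the Universal PBM Analysis Suite. Scale: above 0.35 generally sequence-specific binding.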

| Sequence | PBM E-score |
| --- | --- |
| CCTGGAGC | -0.184 |
| AAGAGCTA | 0.0249 |
| CTTGGCGA | -0.247 |
| CAAGGATG | -0.00238 |
| AGACCAAC | 0.0138 |
| CCAACCTC | 0.0593 |
| GGCTCAAA | -0.161 |
| ACTCGCCC | -0.144 |
| AAAAATAT | 0.208 |
| GCGATCAC | -0.0212 |
| CGTGAACG | -0.236 |
| CCATTCCC | -0.11 |
| ACGCTATG | -0.00946 |
| CTAGGATA | -0.1 |
| CGTTCACC | -0.0464 |
| AAAACGTA | 0.0895 |
| ATTGATTG | 0.186 |
| GCTTTAAC | 0.0858 |
| ATAAATTG | 0.272 |
| AGTATCTC | 0.0416 |
| AAAACATA | 0.146 |
| GACGGATC | 0.0137 |
| AATACGTG | -0.0461 |
| GACTTTGC | 0.0511 |
| CCCGCGCG | 0.138 |

| Sequence | PBM E-score |
| --- | --- |
| GAGAGAAA | -0.00971 |
| GCCAGCTA | -0.0147 |
| GGCCGGAC | -0.26 |
| CGGGTGAA | 0.0438 |
| ATCCAGGG | -0.214 |
| CGTCGCCA | -0.0589 |
| CTGCCTAC | 0.061 |
| AGTCCGGG | -0.17 |
| GCTATTCA | 0.092 |
| GGACCCAA | -0.0926 |
| TAACCGTA | 0.0558 |
| CTTTATGC | -0.0141 |
| GCGTTAAC | 0.00491 |
| ACATCGAG | -0.0343 |
| TTGTAAAA | 0.109 |
| ACAGAAAT | 0.0785 |
| TCGAAGAA | 0.014 |
| CCCAGTAA | 0.0641 |
| ACCTGTAA | 0.04 |
| AGGCTCAT | -0.224 |
| ACCAGAAA | 0.0106 |
| CCCTCCAA | -0.204 |
| AAGTGCAT | 0.072 |
| ACTATCTG | -0.038 |
| AAGTTAGA | 0.108 |

| Sequence | PBM E-score |
| --- | --- |
| ATTCGCAG | 0.121 |
| ACAAGGAG | 0.0212 |
| ACAAGATG | 0.116 |
| CGAGATAG | -0.0704 |
| CTTAAAAG | -0.203 |
| TAATCCGA | 0.0733 |
| CCATACAC | 0.092 |
| AGCGCGAG | -0.0755 |
| AAGCCACG | -0.0147 |
| AAATTGGC | 0.0912 |
| AACGGCTG | -0.193 |
| ATCACGTA | 0.269 |
| GCCACACC | -0.0231 |
| ATTTGTAG | 0.136 |
| GCACGTCA | -0.112 |
| CCTACAAC | 0.11 |
| CATGTTAG | -0.044 |
| ATGATTTG | 0.123 |
| AGCCGGCA | 0.0255 |
| AGAGCGAT | -0.158 |
| ATCTCAGG | 0.0461 |
| AGCCAACA | -0.11 |
| ACCAAAGC | -0.0522 |
| AGGGTGGG | 0.0776 |
| ACGCGTGC | 0.0519 |

| Sequence | PBM E-score |
| --- | --- |
| CACTTTGA | -0.212 |
| CGAATTTA | 0.0677 |
| GCAATGTA | 0.0867 |
| ACCCCTGC | -0.13 |
| TAGGCATA | -0.0591 |
| GCATTGGC | -0.238 |
| AAGCGCCT | -0.12 |
| GAGGGCCC | -0.254 |
| TATTATGA | 0.184 |
| GCCTGCCC | -0.241 |
| AACCGCGG | 0.214 |
| CTGAGTTA | -0.0462 |
| ATTGGATC | 0.0862 |
| CGGGAGGC | -0.237 |
| ACTAATCC | 0.125 |
| TGGTACAA | 0.14 |
| CACATCGA | -0.0812 |
| CAAAGTTG | 0.02 |
| AAGAACAT | 0.217 |
| AAGGGGAT | 0.169 |
| ATATTCGC | 0.2 |
| GTCCGAGA | 0.0782 |
| TCCCCGCA | 0.00162 |
| CGGCTAGC | -0.121 |
| GGCCAAAC | -0.112 |

| Sequence | PBM E-score |
| --- | --- |
| CATTGGCA | 0.00886 |
| AGTCTTGG | -0.0595 |
| AACTCACT | -0.14 |
| CAGATAGG | -0.0377 |
| AGCGATAC | -0.0731 |
| TCATGCAA | 0.24 |
| CTGAATAC | 0.108 |
| CAGAAAAG | 0.0975 |
| AAATCTCC | -0.258 |
| AAGTCGAT | 0.0524 |
| AATCCAGC | 0.00756 |
| CTGGAGAA | -0.202 |
| CAATTCGG | 0.108 |
| GATACCCC | -0.0613 |
| ACTCATCT | 0.156 |
| AGCCCCAA | 0.0821 |
| CCTATGTC | -0.0666 |
| CCACACTA | 0.149 |
| GAAATCGC | 0.0867 |
| ACGCGCAG | -0.124 |
| AACTGTTC | 0.191 |
| CCCCCTAG | -0.464 |
| GTGGACTA | 0.0765 |
| GGCAGGCA | -0.12 |
| CCTCAAGC | -0.173 |

| Sequence | PBM E-score |
| --- | --- |
| AAGCGGTG | -0.236 |
| CAAATAAA | 0.0487 |
| GTGCGGGA | -0.0202 |
| ACGCGCCT | 0.0749 |
| CCCATGAC | -0.0231 |
| AAGGTATT | 0.109 |
| AAAACGTT | 0.0816 |
| ACCGGATA | -0.052 |
| CAATAGTC | -0.0103 |
| CTAATGAG | -0.0617 |
| ATGTTACC | 0.103 |
| ATAGCACG | -0.212 |
| CCGCACGA | -0.0814 |
| AGTGCGCG | -0.0857 |
| GTGATCAA | 0.118 |
| AGCTCATA | 0.0937 |
| ACACAACT | 0.113 |
| AGCATTGA | 0.0105 |
| AGGGAGCA | -0.34 |
| TTCGTAAA | 0.0623 |
| CTGTAGGA | -0.0637 |
| AGAGCCAC | -0.176 |
| AAGCACTT | 0.0388 |
| AAGAGGCG | -0.126 |
| GCCTAGCC | -0.133 |

| Sequence | PBM E-score |
| --- | --- |
| CGTGACCA | -0.0204 |
| GCCCGTGA | -0.223 |
| GCGAGCCC | -0.163 |
| AATAGTCG | 0.0892 |
| CGGTAACA | 0.161 |
| CCTAGATA | -0.14 |
| CCCTGGAC | -0.0926 |
| GCCTATTA | 0.177 |
| CACGACAG | 0.00784 |
| CATGAACA | 0.0732 |
| AATTCTCC | 0.115 |
| GCCACCCC | -0.253 |
| ACAGACGT | -0.127 |
| TGAAGTCA | 0.0574 |
| CATTGATA | 0.146 |
| CACATATA | 0.145 |
| AGCCCGTC | -0.305 |
| AAAACGAA | 0.101 |
| CGGATGCC | 0.00719 |
| AATATTGG | 0.154 |
| AATGGTTG | 0.0822 |
| AGTATGAG | 0.184 |
